Data: the supplement of paper PMC4604168 (melanoma cell lines)
The list shows a part of the results. Single values are uncertain, as repeats are few or missing.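 The apoptosis fraction was the count of cleaved-PARP antibody-stained nuclei relative to all DNA-stained nuclei, imaged in 1,536-well plates. Screening doses were set so most cells survived, and baseline and induced cleaved-PARP levels vary greatly across cell lines.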

Assays:
Experiment in all cases: cleaved PARP positive nuclei fraction relative to DMSO control; melanoma cells; higher = more apoptosis
Settings in all cases: library dose: low library concentration; 72 h
[1] = test system: 501Mel
[2] = test system: A101D
[3] = test system: A2058
[4] = test system: A375
[5] = test system: C32
[6] = test system: CBRC008 (line from a melanoma biopsy)
[7] = test system: CBRC014 (line from a melanoma biopsy)
[8] = test system: CBRC016 (line from a melanoma biopsy)
[9] = test system: CBRC017 (line from a melanoma biopsy)
[10] = test system: CBRC034 (line from a melanoma biopsy)
[11] = test system: COLO792
[12] = test system: COLO800
[13] = test system: COLO829
[14] = test system: G361
[15] = test system: IPC-298
[16] = test system: IST-MEL1
[17] = test system: LB2518-MEL
[18] = test system: LOXIMVI
[19] = test system: MEL-HO
[20] = test system: CBRC013 (line from a melanoma biopsy)

SMILES | cleaved PARP positive nuclei fraction [1] [%] | cleaved PARP positive nuclei fraction [2] [%] | cleaved PARP positive nuclei fraction [3] [%] | cleaved PARP positive nuclei fraction [4] [%] | cleaved PARP positive nuclei fraction [5] [%] | cleaved PARP positive nuclei fraction [6] [%] | cleaved PARP positive nuclei fraction [7] [%] | cleaved PARP positive nuclei fraction [8] [%] | cleaved PARP positive nuclei fraction [9] [%] | cleaved PARP positive nuclei fraction [10] [%] | cleaved PARP positive nuclei fraction [11] [%] | cleaved PARP positive nuclei fraction [12] [%] | cleaved PARP positive nuclei fraction [13] [%] | cleaved PARP positive nuclei fraction [14] [%] | cleaved PARP positive nuclei fraction [15] [%] | cleaved PARP positive nuclei fraction [16] [%] | cleaved PARP positive nuclei fraction [17] [%] | cleaved PARP positive nuclei fraction [18] [%] | cleaved PARP positive nuclei fraction [19] [%] | cleaved PARP positive nuclei fraction [20] [%]
Clc1ccc(Nc2nnc(Cc3ccncc3)c3ccccc23)cc1 [vatalanib] + COc1ccc(Cl)c(Nc2nc3ccccc3nc2NS(=O)(=O)c2cccc(NC(=O)C(C)(C)N)c2)c1 [XL147] (first compound 2 µM, partner dose 0.8 µM) | 158 | 143 | 121 | 202 | 45.5 | 323 | 156 | 214 | 138 | 81 | 146 | 155 | 40.5 | 105 | 100 | 100 | 118 | 35.7 | 124 | 
CC(=O)c1c(C)c2cnc(Nc3ccc(N4CCNCC4)cn3)nc2n(C2CCCC2)c1=O [palbociclib] + Clc1ccc(Nc2nnc(Cc3ccncc3)c3ccccc23)cc1 [vatalanib] (first compound 0.04 µM, partner dose 2 µM) | 186 | 58 | 50.2 | 76.9 | 91.7 | 80.3 | 128 | 30 | 121 | 65.8 | 37.7 | 60 | 88.6 | 113 | 49.2 | 313 | 118 | 134 | 179 | 
Nc1cccc2c1CN(C1CCC(=O)NC1=O)C2=O (stereo not given) [lenalidomide] + COC(=O)c1sccc1S(=O)(=O)Nc1ccc(Nc2ccccc2)cc1OC [GSK0660] (first compound 1 µM, partner dose 1 µM) | 78.6 | 32.1 | 148 | 49.1 | 279 |  | 86.1 | 82.1 | 76.9 | 77.8 | 105 | 168 | 137 | 177 | 41 | 87.5 | 188 | 26.1 |  | 227
OCc1c[nH]c2ccccc12 [Indole-3-carbinol] + COc1ccc(Cl)c(Nc2nc3ccccc3nc2NS(=O)(=O)c2cccc(NC(=O)C(C)(C)N)c2)c1 [XL147] (first compound 0.8 µM, partner dose 0.8 µM) | 89.4 | 49.8 | 56 | 191 | 80.1 | 82.2 | 104 | 89.8 | 106 | 106 | 174 | 115 | 106 | 106 | 87.9 | 61.4 | 111 | 88.3 | 87.7 | 
OCCn1cc(-c2cnc3nnn(Cc4ccc5ncccc5c4)c3n2)cn1 + CCc1ccc(CCOc2ccc(CC3SC(=O)NC3=O)cc2)nc1 [pioglitazone] (first compound 1 µM, partner dose 2 µM) | 131 | 63.3 | 96.5 | 143 | 73 |  | 94.8 | 87.5 | 42.8 | 167 | 58 | 81.2 | 28.7 | 55.6 | 81 | 43.9 | 95 | 64.9 |  | 258
COCC[n+]1c2c(n(Cc3cnccn3)c1C)C(=O)c1ccccc1C2=O + C[C@]1(c2nc3c(C(N)=O)cccc3[nH]2)CCCN1 [Veliparib] (first compound 0.0004 µM, partner dose 1.4 µM) | 81.9 | 159 | 227 | 136 | 83.9 | 193 | 97.5 | 166 | 153 | 44.5 | 83 | 167 | 122 | 67 | 54.4 | 105 | 222 | 42.6 | 192 | 
Clc1ccc(Nc2nnc(Cc3ccncc3)c3ccccc23)cc1 [vatalanib] + COCC[n+]1c2c(n(Cc3cnccn3)c1C)C(=O)c1ccccc1C2=O [YM155] (first compound 2 µM, partner dose 0.0004 µM) | 174 | 153 | 187 | 168 | 84.6 | 90.5 | 115 | 244 | 106 | 80.7 | 108 | 51.5 | 72.9 | 120 | 88.3 | 180 | 105 | 115 | 52.8 | 
C#Cc1cccc(Nc2ncnc3cc(OCCOC)c(OCCOC)cc23)c1 [erlotinib] + COCC[n+]1c2c(n(Cc3cnccn3)c1C)C(=O)c1ccccc1C2=O [YM155] (first compound 0.8 µM, partner dose 0.0004 µM) | 60.3 | 59.4 | 52 | 140 | 168 | 221 | 96.7 | 35.5 | 117 | 30.6 | 114 | 80.2 | 54.7 | 115 | 98.7 | 71 | 285 | 254 | 118 | 
C#Cc1cccc(Nc2ncnc3cc(OCCOC)c(OCCOC)cc23)c1 [erlotinib] + Cn1nnc2c(C(N)=O)ncn2c1=O [temozolomide] (first compound 0.8 µM, partner dose 2 µM) | 122 | 98.5 | 88.2 | 142 | 93.7 | 68.4 | 106 | 129 | 88.9 | 73.1 | 119 | 83.2 | 106 | 150 | 135 | 41.5 | 116 | 82.7 | 117 | 
C=CCNC1=C2C[C@@H](C)C[C@H](OC)[C@H](O)[C@@H](C)/C=C(\C)[C@H](OC(N)=O)[C@@H](OC)/C=C\C=C(/C)C(=O)NC(=CC1=O)C2=O [Tanespimycin] + OCc1c[nH]c2ccccc12 [Indole-3-carbinol] (first compound 0.002 µM, partner dose 0.8 µM) | 342 | 92.4 | 221 | 71.6 | 119 | 63.8 | 107 | 175 | 104 | 67.8 | 106 | 154 | 59.3 | 83.6 | 45.6 | 161 | 105 | 31.5 | 253 | 
COc1cc(Nc2ncc(F)c(Nc3ccc4c(n3)NC(=O)C(C)(C)O4)n2)cc(OC)c1OC [Tamatinib] + O=C(Nc1ccccc1)c1cc([N+](=O)[O-])ccc1Cl [GW9662] (first compound 0.4 µM, partner dose 2 µM) | 309 | 163 | 52.5 | 165 | 118 |  | 102 | 146 | 130 | 51.5 | 328 | 257 | 92.5 | 108 | 63.8 | 118 | 90.9 | 130 |  | 132
Cn1c(Nc2ccc(C(F)(F)F)cc2)nc2cc(Oc3ccnc(-c4ncc(C(F)(F)F)[nH]4)c3)ccc21 + N#Cc1c(O)c2c(-c3ccc(-c4ccccc4O)cc3)csc2[nH]c1=O [A769662] (first compound 0.08 µM, partner dose 2 µM) | 70.3 | 265 | 98.8 | 327 | 85.5 |  | 107 | 141 | 93.8 | 105 | 307 | 246 | 65.7 | 145 | 42.5 | 96.2 | 74.9 | 38.1 |  | 310
C=CCNC1=C2C[C@@H](C)C[C@H](OC)[C@H](O)[C@@H](C)/C=C(\C)[C@H](OC(N)=O)[C@@H](OC)/C=C\C=C(/C)C(=O)NC(=CC1=O)C2=O [Tanespimycin] + CC(=O)c1c(C)c2cnc(Nc3ccc(N4CCNCC4)cn3)nc2n(C2CCCC2)c1=O [palbociclib] (first compound 0.002 µM, partner dose 0.04 µM) | 218 | 57.3 | 54.2 | 189 | 221 | 143 | 97.4 | 67.5 | 133 | 64.2 | 188 | 119 | 109 | 125 | 50.1 | 116 | 107 | 113 | 51.5 | 
Clc1ccc(Nc2nnc(Cc3ccncc3)c3ccccc23)cc1 [vatalanib] + Cn1c(Nc2ccc(C(F)(F)F)cc2)nc2cc(Oc3ccnc(-c4ncc(C(F)(F)F)[nH]4)c3)ccc21 [CHIR265] (first compound 2 µM, partner dose 0.08 µM) | 131 | 84.4 | 227 | 158 | 87.7 | 76.2 | 165 | 121 | 129 | 35.2 | 153 | 73 | 97.2 | 180 | 84.2 | 76.8 | 150 | 312 | 64.5 | 
OCc1c[nH]c2ccccc12 [Indole-3-carbinol] + C[C@]1(c2nc3c(C(N)=O)cccc3[nH]2)CCCN1 [Veliparib] (first compound 0.8 µM, partner dose 1.4 µM) | 146 | 238 | 193 | 107 | 103 | 184 | 83.3 | 73.4 | 114 | 85.7 | 82.2 | 37.3 | 104 | 91.1 | 207 | 62.8 | 211 | 102 | 48 | 
Cn1nnc2c(C(N)=O)ncn2c1=O [temozolomide] + O=S(=O)(c1ccccc1)N(CC(F)(F)F)c1ccc(C(O)(C(F)(F)F)C(F)(F)F)cc1 [T0901317] (first compound 2 µM, partner dose 1.4 µM) | 82.4 | 15.7 | 213 | 108 | 94.2 |  | 119 | 33.5 | 75.1 | 79.9 | 59.3 | 87.1 | 185 | 74.4 | 94.6 | 18.5 | 72.2 | 72.4 |  | 40
Cn1nnc2c(C(N)=O)ncn2c1=O [temozolomide] + COc1ccc(COc2ccc(Cc3cnc(N)nc3N)cc2OC)cc1 [GW2580] (first compound 2 µM, partner dose 1 µM) | 54.6 | 128 | 88 | 101 | 73.1 |  | 125 | 49.1 | 86.6 | 88.2 | 147 | 156 | 126 | 226 | 87.2 | 139 | 73.6 | 59.6 |  | 135
COc1cc(Nc2ncc(F)c(Nc3ccc4c(n3)NC(=O)C(C)(C)O4)n2)cc(OC)c1OC [Tamatinib] + Cc1cc([N+](=O)[O-])ccc1NS(=O)(=O)c1cc(Cl)ccc1Cl [FH535] (first compound 0.4 µM, partner dose 1 µM) | 108 | 124 | 133 | 157 | 99.3 |  | 211 | 433 | 332 | 349 | 200 | 214 | 97.3 | 109 | 163 | 127 | 105 | 104 |  | 411

Another view of part of the listing above:
SMILES	cleaved PARP positive nuclei fraction [1] [%]	cleaved PARP positive nuclei fraction [2] [%]	cleaved PARP positive nuclei fraction [3] [%]	cleaved PARP positive nuclei fraction [4] [%]	cleaved PARP positive nuclei fraction [5] [%]	cleaved PARP positive nuclei fraction [6] [%]	cleaved PARP positive nuclei fraction [7] [%]	cleaved PARP positive nuclei fraction [8] [%]	cleaved PARP positive nuclei fraction [9] [%]	cleaved PARP positive nuclei fraction [10] [%]	cleaved PARP positive nuclei fraction [11] [%]	cleaved PARP positive nuclei fraction [12] [%]	cleaved PARP positive nuclei fraction [13] [%]	cleaved PARP positive nuclei fraction [14] [%]	cleaved PARP positive nuclei fraction [15] [%]	cleaved PARP positive nuclei fraction [16] [%]	cleaved PARP positive nuclei fraction [17] [%]	cleaved PARP positive nuclei fraction [18] [%]	cleaved PARP positive nuclei fraction [19] [%]	cleaved PARP positive nuclei fraction [20] [%]
Clc1ccc(Nc2nnc(Cc3ccncc3)c3ccccc23)cc1 [vatalanib] + COCC[n+]1c2c(n(Cc3cnccn3)c1C)C(=O)c1ccccc1C2=O [YM155] (first compound 2 µM, partner dose 0.0004 µM)	174	153	187	168	84.6	90.5	115	244	106	80.7	108	51.5	72.9	120	88.3	180	105	115	52.8	
C#Cc1cccc(Nc2ncnc3cc(OCCOC)c(OCCOC)cc23)c1 [erlotinib] + COCC[n+]1c2c(n(Cc3cnccn3)c1C)C(=O)c1ccccc1C2=O [YM155] (first compound 0.8 µM, partner dose 0.0004 µM)	60.3	59.4	52	140	168	221	96.7	35.5	117	30.6	114	80.2	54.7	115	98.7	71	285	254	118	
